# According to the supplement of paper PMC11348887:
# Structures can show the parent of a compound that is named as a salt. The list shows a part of the results. Small differences around the control level are noise. *1 amine or outer side, *2 acyl side, *3 side chain or, on linkers, in order; H or OH if unused. Where a SMILES comes first, the peptide text is derived from it. Bridges are numbered along the chain shown (N, C = ends). [ ]: non-standard residue; d: D form. The star is where a group is joined. ξ: configuration not given here. X1 = N=C1NCCC([C@H](N[*:1])C(=O)[*:2])N1; ΔAla(Z-3-ureido) = NC(=O)N/C=C(\N)C(=O)O; ξβ3hOrn = NCCCC(N)CC(=O)*; Dap = NC[C@H](N)C(=O)O
# Experiments:
# Conditions in all cases: 5 µM; treatment: days 7-14 after plating, readout day 21
# [1] = tested on: hPSC-derived cortical neurons (WA09); assay: nucleus area z-score vs screen plate; higher = larger nuclei (more mature)
# [2] = tested on: hPSC-derived cortical neurons (WA09); assay: total neurite length per nucleus (MAP2) z-score; higher = more neurite growth
# [3] = tested on: hPSC-derived cortical neurons (WA09); assay: nucleus roundness z-score vs screen plate; higher = rounder nuclei (more mature)
# [4] = tested on: hPSC-derived cortical neurons (WA09); assay: KCl-induced FOS+/EGR-1+ double-positive nuclei fraction z-score (KCl minus unstimulated); higher = stronger activity-induced IEG response
Structure (SMILES),nucleus area z-score [1],total neurite length per nucleus (z-score) [2],nucleus roundness z-score [3],KCl-induced FOS+/EGR-1+ double-positive nuclei fraction z-score [4]
O=C(O)c1ccc(N2C(=O)/C(=C\c3ccc(-c4ccc([N+](=O)[O-])cc4)o3)C=C2c2ccccc2)cc1,-0.625,0.242,-0.343,0.906
Nc1nccc2c1ncn2C1C=C(CO)C(O)C1O (configuration not stated) [3-Deazaneplanocin A (DZNeP)],1.44,-0.517,-0.993,-0.667
N#Cc1ccc2[nH]c(O)c(-c3ccc(CN4CCOCC4)cn3)c2c1,-0.956,-1.66,-1.25,0.0201
O=C([O-])C(O)[C@H](O)[C@@H](O)[C@H](O)[C@H](O)CO.O=C([O-])C(O)[C@H](O)[C@@H](O)[C@H](O)[C@H](O)CO.[Ca+2] (some centres not stated) [Calcium Gluceptate],-0.598,0.787,0.57,0.343
CCC1=C[C@@H]2CN(C1)Cc1c([nH]c3ccccc13)[C@@](C(=O)OC)(c1cc3c(cc1OC)N(C)[C@H]1[C@@](O)(C(=O)OC)[C@H](OC(C)=O)[C@]4(CC)C=CCN5CC[C@]31[C@@H]54)C2 [Vinorelbine Tartrate],-12.2,-4.56,-7.12,-0.214
CC(C)C(=O)Nc1ccc([N+](=O)[O-])c(C(F)(F)F)c1 [Flutamide],0.763,-0.0044,-1.8,1.12
Oc1ncnc2[nH]ncc12 [Allopurinol],-0.0381,0.264,-0.154,1.04
Cc1ccc(C(=O)Nc2ccc(CN3CCN(C)CC3)c(C(F)(F)F)c2)cc1C#Cc1cnc2cccnn12,-6.97,-2.66,-2.67,0.607
CC1=C(/C=C/C(C)=C/C=C/C(C)=C\C(=O)O)C(C)(C)CCC1 [Isotretinoin],0.544,-0.239,0.172,-0.0657
C[C@H]1COc2c(N3CCN(C)CC3)c(F)cc3c(=O)c(C(=O)O)cn1c23 [Levofloxacin hydrate],0.102,0.837,0.531,-0.0889
CC(C)NC[C@@H](O)COc1ccc(CC(N)=O)cc1 [(R)-(+)-Atenolol HCl],-0.655,0.653,0.0773,0.661
NCCCC(N)(C(=O)O)C(F)F (configuration not stated) [Eflornithine hydrochloride hydrate],0.889,0.166,0.386,1.26
OC(CCCN1CCCCC1)(c1ccccc1)c1ccccc1 [Diphenidol HCl],0.521,-0.269,0.422,0.13
O=C(O)CCNC(=O)c1ccccc1 [Betamipron],1.67,-0.151,-0.637,0.302
O=C(Nc1cccnc1)N1CCC(Cc2cccc(Oc3ccc(C(F)(F)F)cn3)c2)CC1,1.25,-0.311,-0.312,0.146
C[C@H](CS)C(=O)N1CCC[C@H]1C(=O)O [Captopril],-0.214,0.0554,-0.0107,3.78
Nc1nccc(Oc2ccc(NC(=O)c3c[nH]cc(-c4ccc(F)cc4)c3=O)cc2F)c1Cl,1.97,-1.1,-0.644,-0.687
COc1ccc(CCN(C)CCCC(C#N)(c2ccc(OC)c(OC)c2)C(C)C)cc1OC (configuration not stated) [Verapamil HCl],-0.62,-1.03,-0.839,-0.683
Cc1cccc(C)c1OCC(=O)N[C@@H](Cc1ccccc1)[C@@H](O)C[C@H](Cc1ccccc1)NC(=O)[C@H](C(C)C)N1CCCNC1=O [Lopinavir],-0.982,0.0469,0.629,-0.437
CCN(CC)CCOC(=O)c1ccc(N)cc1 [Procaine HCl],-0.911,0.309,-0.387,0.473
C[S+](CC[C@H](N)C(=O)[O-])C[C@H]1O[C@@H](n2cnc3c(N)ncnc32)[C@H](O)[C@@H]1O (some centres not stated) [Ademetionine disulfate tosylate],0.736,0.171,0.0557,1.74
OCc1ccc(-c2ccc(-c3ccc(CO)s3)o2)s1,-0.477,-0.134,0.0191,-0.283
COC1=CC(=O)C[C@@H](C)[C@]12Oc1c(Cl)c(OC)cc(OC)c1C2=O [Griseofulvin],0.854,-0.812,-1.25,-0.398
C[C@@H]1NC(=O)[C@@H](N)CNC(=O)[C@H](C2CCNC(=N)N2)NC(=O)/C(=C/NC(N)=O)NC(=O)[C@H](CNC(=O)CC(N)CCCN)NC1=O.N=C1NCC[C@H]([C@@H]2NC(=O)/C(=C/NC(N)=O)NC(=O)[C@H](CNC(=O)C[C@@H](N)CCCN)NC(=O)[C@H](CO)NC(=O)[C@@H](N)CNC2=O)N1 [Capreomycin Sulfate] (H-[Dap]S[Dap](ξβ3hOrn)[ΔAla(Z-3-ureido)][X1]; lactam 1-C),-0.103,1.64,0.753,1.96
CN[C@H]1CC[C@@H](c2ccc(Cl)c(Cl)c2)c2ccccc21 [Sertraline HCl],-1.37,-0.105,-0.783,0.213
CC[C@@H]1/C=C(\C)C[C@H](C)C[C@H](OC)[C@H]2O[C@@](O)(C(=O)C(=O)N3CCCC[C@H]3C(=O)O[C@H](/C(C)=C/[C@@H]3CC[C@@H](O)[C@H](OC)C3)[C@H](C)[C@@H](O)CC1=O)[C@H](C)C[C@@H]2OC [Ascomycin (FK520)],-2.74,-1.82,-3.87,-1.08
C[C@@H](O)[C@H]1C(=O)N2C(C(=O)[O-])=C(SC3Cn4cnc[n+]4C3)[C@H](C)[C@H]12 (some centres not stated) [Biapenem],1.1,-0.21,-0.596,-0.728

Structure (SMILES),nucleus area z-score [1],total neurite length per nucleus (z-score) [2],nucleus roundness z-score [3],KCl-induced FOS+/EGR-1+ double-positive nuclei fraction z-score [4]
CC[C@H]1OC(=O)C[C@@H](O)[C@H](C)[C@@H](O[C@@H]2O[C@H](C)[C@@H](O)[C@H](N(C)C)[C@H]2O)[C@@H](CCN2C[C@H](C)C[C@H](C)C2)C[C@@H](C)C(=O)/C=C/C(C)=C/[C@@H]1CO[C@@H]1O[C@H](C)[C@@H](O)[C@@H](OC)[C@H]1OC [Tilmicosin],-1.23,0.894,0.586,-6.48
CNCC[C@@H](Oc1ccccc1C)c1ccccc1 [Atomoxetine HCl],0.0224,1.1,0.458,0.911
Cn1cnc(N)c2ncnc1-2 [3-Methyladenine],0.0104,1.75,0.341,0.628
O=c1c(O)c(-c2ccc(O)cc2)oc2cc(O)cc(O)c12 [Kaempferol],-0.0276,0.432,-0.505,0.596
CN(CC(=O)N(Cc1ccc(C2CCCCC2)cc1)c1ccc(C(=O)O)cc1)S(=O)(=O)c1c(F)c(F)c(F)c(F)c1F,-5.22,-3.54,-2.85,-0.331
N=C(N)NS(=O)(=O)c1ccc(N)cc1 [Sulfaguanidine],0.061,1.2,1.26,1.01
CN1CCN(Cc2ccc(Nc3ncc(Cl)c(Nc4ccccc4S(=O)(=O)N(C)C)n3)cc2)CC1,-12.6,-5.61,-4.48,-1.54
CN(Cc1cc(Br)cc(Br)c1N)C1CCCCC1 [Bromhexine HCl],0.103,-1.02,-1.45,-1.31
CN1C(CCl)Nc2cc(Cl)c(S(N)(=O)=O)cc2S1(=O)=O (configuration not stated) [Methyclothiazide],-4.09,-1.74,-3.62,-2.94
O=C1NCCCc2c1oc1ccc(O)cc21,-0.937,0.592,0.775,0.0776
O=C(Nc1ccccc1-c1cn2c(CN3CCNCC3)csc2n1)c1cnc2ccccc2n1,-6.02,-2.16,-1.83,0.397
O=C1NC(=O)/C(=C/c2cccc(C(F)(F)F)c2)S1,0.15,0.845,-0.0331,0.819
CC(=O)OCC[N+](C)(C)C [Acetylcholine Chloride],0.249,-0.429,-0.553,0.102
CC1(C)CC(=O)c2c(C(F)(F)F)nn(-c3ccc(C(N)=O)c(N[C@H]4CC[C@H](O)CC4)c3)c2C1,-13.7,-5.63,-5.06,0.251
CNc1cccc(CCOc2ccc3c(c2)CN(CC(F)(F)F)C(=O)[C@H](CC(=O)O)C3)n1,2.77,-0.296,-0.568,-0.0294
CCN(CC)C(=O)/C(C#N)=C/c1cc(O)c(O)c([N+](=O)[O-])c1 [Entacapone],0.491,-0.123,0.00363,-0.283
COc1cc(OC)c(C(=O)CCCN2CCCC2)c(OC)c1 [Buflomedil HCl],1.22,-0.782,-0.776,-0.0894
COc1cc2c(cc1Cc1cccc(Cl)c1F)c(=O)c(C(=O)O)cn2[C@H](CO)C(C)C [Elvitegravir (GS-9137_ JTK-303)],2.16,-1.12,-0.302,-0.342
O=C1CN2Cc3c(ccc(Cl)c3Cl)N=C2N1 [Anagrelide HCl],-0.941,0.287,0.219,-1.02
C#CC[C@H](c1nc2cc(Cl)ccc2c(=O)n1Nc1ccccc1)N(CCCN)C(=O)c1cccc(Cl)c1F,-11.1,-5.2,-6.92,-1.06
CN(C)c1nc(N(C)C)nc(N(C)C)n1 [Altretamine],-0.203,0.515,-0.155,1.01
Cc1c(Cn2c(C)nc3c(C(=O)O)cc(N4CCOCC4)cc32)cccc1C(F)(F)F,0.84,1.08,0.38,0.439
CCc1cnn2c(NCc3ccc[n+]([O-])c3)cc(N3CCCC[C@H]3CCO)nc12,-14.4,-5.12,-3.17,3.35
C[C@@H]1O[C@@H](OC[C@H]2O[C@@H](Oc3c(-c4ccc(OCCO)c(OCCO)c4)oc4cc(OCCO)cc(O)c4c3=O)[C@H](O)[C@@H](O)[C@@H]2O)[C@H](O)[C@H](O)[C@H]1O [Troxerutin],0.825,-0.0223,-0.304,1.11
CC(C)(C)C#Cc1cc(N(C(=O)[C@H]2CC[C@H](C)CC2)[C@H]2CC[C@H](O)CC2)c(C(=O)O)s1 [VX-222 (VCH-222_ Lomibuvir)],-0.34,0.259,-0.618,0.283
COC(=O)N[C@H](C(=O)N1CCC[C@H]1c1ncc(-c2ccc(-c3ccc(-c4cnc([C@@H]5CCCN5C(=O)[C@@H](NC(=O)OC)C(C)C)[nH]4)cc3)cc2)[nH]1)C(C)C,0.176,0.347,-0.123,0.948
